Results deposited as PubChem BioAssay AID1159578 (Peter MacCallum Cancer Centre, 2015)
The deposit covers about 18,000 reagents; below is an unselected part. About 1,030 of all reagents (5.7%) count as active. 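Inactive calls also include pools with fewer than 3300 nuclei, whose migration was not assessed.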 Raw values vary from plate to plate and are shown uncorrected. Reagent sequences are not shown.

Screen: 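siRNA pools altering how lymphatic endothelial cells close a scratch wound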 (primary screen)
System: human lymphatic endothelial cells
Reagents: siRNA pool against human genes, 40 nM
Time to read-out: 48 h after transfection
Measured: 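Cells stained with dye and imaged after a scratch; covered wound area and nuclei counted, duplicates averaged, migration set against mock wells and turned into a robust z-score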
Direction: migration robust z-score: higher = faster migration into the scratch; migration relative to mock: higher = more scratch area covered than mock; nuclei per well: higher = more cells in the well
Active means: 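Migration changed when robust z exceeds 2 or falls below -2 and mean nuclei number is at least 3300; otherwise not called changed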
Meaning of the calls: active = migration changed; inactive = no migration change, or too few cells

no.	gene	PubChem SID	migration robust z-score	migration class with cell-count check	migration relative to mock	nuclei per well, duplicate mean	Outcome
1	HOXB5 (GeneID 3215)	SID255350273	-0.78	migration z between -2 and 2; enough cells	0.66	7282	inactive
2	METTL21C (GeneID 196541)	SID255363977	-0.08	migration z between -2 and 2; enough cells	0.86	5046	inactive
3	TMEM92 (GeneID 162461)	SID255363750	0.2	migration z between -2 and 2; enough cells	0.93	6341	inactive
4	SYTL4 (GeneID 94121)	SID255362121	-0.08	migration z between -2 and 2; enough cells	0.79	4866	inactive
5	KIAA0930 (GeneID 23313)	SID255356153	1.35	migration z between -2 and 2; enough cells	1.23	4570	inactive
6	EIF1AY (GeneID 9086)	SID255354023	1.04	migration z between -2 and 2; enough cells	1.01	5752	inactive
7	ATXN7 (GeneID 6314)	SID255352293	-0.64	migration z between -2 and 2; enough cells	0.72	3766	inactive
8	CNTNAP3 (GeneID 79937)	SID255360580	1.24	migration z between -2 and 2; enough cells	1.21	5500	inactive
9	ZNF786 (GeneID 136051)	SID255363006	1.01	migration z between -2 and 2; enough cells	1.15	5185	inactive
10	CERKL (GeneID 375298)	SID255365363	-0.62	migration z between -2 and 2; enough cells	0.72	7213	inactive
11	RAD9B (GeneID 144715)	SID255363232	-0.46	migration z between -2 and 2; enough cells	0.76	5777	inactive
12	CD5 (GeneID 921)	SID255348756	0.99	migration z between -2 and 2; enough cells	1	6362	inactive
13	SCUBE3 (GeneID 222663)	SID255364357	0.98	migration z between -2 and 2; enough cells	1.14	6325	inactive
14	TBC1D23 (GeneID 55773)	SID255358850	-0.52	migration z between -2 and 2; enough cells	0.74	7054	inactive
15	EARS2 (GeneID 124454)	SID255362613	1.29	migration z between -2 and 2; enough cells	1.22	5665	inactive
16	WFDC9 (GeneID 259240)	SID255364576	-0.58	migration z between -2 and 2; enough cells	0.74	5909	inactive
17	SSTR2 (GeneID 6752)	SID255352647	1.29	migration z between -2 and 2; enough cells	1.05	5448	inactive
18	SLFN12 (GeneID 55106)	SID255358413	-3.11	migration z below -2; enough cells	0.2	6042	active
19	ZC3H8 (GeneID 84524)	SID255361395	-0.73	migration z between -2 and 2; enough cells	0.7	6379	inactive
20	PHOSPHO2 (GeneID 493911)	SID255366007	0.66	migration z between -2 and 2; enough cells	1.05	6480	inactive
21	TARBP1 (GeneID 6894)	SID255352748	0.24	migration z between -2 and 2; enough cells	0.85	7024	inactive
22	CAMK4 (GeneID 814)	SID255348675	-0.08	migration z between -2 and 2; enough cells	0.79	5428	inactive
23	HPX (GeneID 3263)	SID255350304	-0.78	migration z between -2 and 2; enough cells	0.68	5796	inactive
24	RORB (GeneID 6096)	SID255352150	1.6	migration z between -2 and 2; enough cells	1.12	5578	inactive
25	ODF2L (GeneID 57489)	SID255359417	-0.36	migration z between -2 and 2; enough cells	0.79	6468	inactive
26	TNFRSF10B (GeneID 8795)	SID255353817	0.2	migration z between -2 and 2; enough cells	0.94	6686	inactive
27	HOXB7 (GeneID 3217)	SID255350275	-1.25	migration z between -2 and 2; enough cells	0.56	4448	inactive
28	SLC25A6 (GeneID 293)	SID255348313	-0.08	migration z between -2 and 2; enough cells	0.79	5542	inactive
29	LPCAT1 (GeneID 79888)	SID255360545	0.26	migration z between -2 and 2; enough cells	0.86	6295	inactive
30	SLC22A2 (GeneID 6582)	SID255352507	0.29	migration z between -2 and 2; enough cells	0.86	6412	inactive
31	ADAMTSL2 (GeneID 9719)	SID255354497	-0.8	migration z between -2 and 2; enough cells	0.68	5062	inactive
32	GPSM2 (GeneID 29899)	SID255357202	0.53	migration z between -2 and 2; enough cells	1.02	5840	inactive
33	WIF1 (GeneID 11197)	SID255355675	0.09	migration z between -2 and 2; enough cells	0.9	7020	inactive
34	TTLL9 (GeneID 164395)	SID255363810	-0.91	migration z between -2 and 2; enough cells	0.65	5405	inactive
35	GLYATL1 (GeneID 92292)	SID255361998	0.88	under 3300 nuclei; migration not judged	0.98	3238	inactive
36	TFB1M (GeneID 51106)	SID255357481	1.19	migration z between -2 and 2; enough cells	1.04	5891	inactive
37	GBA1 (GeneID 2629)	SID255349841	-3.82	migration z below -2; enough cells	0.07	4138	active
38	TRIM48 (GeneID 79097)	SID255360218	1.48	migration z between -2 and 2; enough cells	1.09	6136	inactive
39	HYAL3 (GeneID 8372)	SID255353514	-0.67	migration z between -2 and 2; enough cells	0.68	6278	inactive
40	ZBED2 (GeneID 79413)	SID255360285	-0.05	migration z between -2 and 2; enough cells	0.87	5583	inactive

In a second layout: results already given.
{"gene":"HOXB5 (GeneID 3215)","PubChem SID":"SID255350273","migration robust z-score":-0.78,"migration class with cell-count check":"migration z between -2 and 2; enough cells","migration relative to mock":0.66,"nuclei per well, duplicate mean":7282,"Outcome":"inactive"}
{"gene":"METTL21C (GeneID 196541)","PubChem SID":"SID255363977","migration robust z-score":-0.08,"migration class with cell-count check":"migration z between -2 and 2; enough cells","migration relative to mock":0.86,"nuclei per well, duplicate mean":5046,"Outcome":"inactive"}
{"gene":"TMEM92 (GeneID 162461)","PubChem SID":"SID255363750","migration robust z-score":0.2,"migration class with cell-count check":"migration z between -2 and 2; enough cells","migration relative to mock":0.93,"nuclei per well, duplicate mean":6341,"Outcome":"inactive"}
{"gene":"SYTL4 (GeneID 94121)","PubChem SID":"SID255362121","migration robust z-score":-0.08,"migration class with cell-count check":"migration z between -2 and 2; enough cells","migration relative to mock":0.79,"nuclei per well, duplicate mean":4866,"Outcome":"inactive"}
{"gene":"KIAA0930 (GeneID 23313)","PubChem SID":"SID255356153","migration robust z-score":1.35,"migration class with cell-count check":"migration z between -2 and 2; enough cells","migration relative to mock":1.23,"nuclei per well, duplicate mean":4570,"Outcome":"inactive"}
{"gene":"EIF1AY (GeneID 9086)","PubChem SID":"SID255354023","migration robust z-score":1.04,"migration class with cell-count check":"migration z between -2 and 2; enough cells","migration relative to mock":1.01,"nuclei per well, duplicate mean":5752,"Outcome":"inactive"}
{"gene":"ATXN7 (GeneID 6314)","PubChem SID":"SID255352293","migration robust z-score":-0.64,"migration class with cell-count check":"migration z between -2 and 2; enough cells","migration relative to mock":0.72,"nuclei per well, duplicate mean":3766,"Outcome":"inactive"}
{"gene":"CNTNAP3 (GeneID 79937)","PubChem SID":"SID255360580","migration robust z-score":1.24,"migration class with cell-count check":"migration z between -2 and 2; enough cells","migration relative to mock":1.21,"nuclei per well, duplicate mean":5500,"Outcome":"inactive"}
{"gene":"ZNF786 (GeneID 136051)","PubChem SID":"SID255363006","migration robust z-score":1.01,"migration class with cell-count check":"migration z between -2 and 2; enough cells","migration relative to mock":1.15,"nuclei per well, duplicate mean":5185,"Outcome":"inactive"}
{"gene":"CERKL (GeneID 375298)","PubChem SID":"SID255365363","migration robust z-score":-0.62,"migration class with cell-count check":"migration z between -2 and 2; enough cells","migration relative to mock":0.72,"nuclei per well, duplicate mean":7213,"Outcome":"inactive"}
{"gene":"RAD9B (GeneID 144715)","PubChem SID":"SID255363232","migration robust z-score":-0.46,"migration class with cell-count check":"migration z between -2 and 2; enough cells","migration relative to mock":0.76,"nuclei per well, duplicate mean":5777,"Outcome":"inactive"}

Next reagents follow.
no.	gene	PubChem SID	migration robust z-score	migration class with cell-count check	migration relative to mock	nuclei per well, duplicate mean	Outcome
41	MR1 (GeneID 3140)	SID255350215	0.65	migration z between -2 and 2; enough cells	1.06	5698	inactive
42	DDIAS (GeneID 220042)	SID255364236	-0.26	migration z between -2 and 2; enough cells	0.82	6345	inactive
43	RNF31 (GeneID 55072)	SID255358389	1.34	migration z between -2 and 2; enough cells	1.06	7296	inactive
44	POP4 (GeneID 10775)	SID255355343	0.08	migration z between -2 and 2; enough cells	0.9	8342	inactive
45	DRC9 (GeneID 84223)	SID255361250	-0.22	migration z between -2 and 2; enough cells	0.83	5969	inactive
46	KCNAB2 (GeneID 8514)	SID255353608	-0.55	migration z between -2 and 2; enough cells	0.7	5248	inactive
47	LSMEM1 (GeneID 286006)	SID255364893	0.36	migration z between -2 and 2; enough cells	0.98	5440	inactive
48	PGLYRP4 (GeneID 57115)	SID255359274	-2.88	migration z below -2; enough cells	0.25	7475	active
49	SLC16A12 (GeneID 387700)	SID255365450	-0.1	migration z between -2 and 2; enough cells	0.78	5353	inactive
50	ADGRD1 (GeneID 283383)	SID255364670	2.12	migration z above 2; enough cells	1.21	5976	active
51	RDH16 (GeneID 8608)	SID255353675	-0.6	migration z between -2 and 2; enough cells	0.73	6780	inactive
52	TMEM151A (GeneID 256472)	SID255364530	0.21	migration z between -2 and 2; enough cells	0.94	5874	inactive
53	ATAD2 (GeneID 29028)	SID255357108	0.21	migration z between -2 and 2; enough cells	0.84	5738	inactive
54	LINC00482 (GeneID 284185)	SID255364748	0.86	migration z between -2 and 2; enough cells	1.11	6220	inactive
55	MRPL22 (GeneID 29093)	SID255357133	1.23	migration z between -2 and 2; enough cells	1.21	5038	inactive
56	CTDSPL2 (GeneID 51496)	SID255357747	0.37	migration z between -2 and 2; enough cells	0.98	3800	inactive
57	PKDREJ (GeneID 10343)	SID255355009	1.25	migration z between -2 and 2; enough cells	1.04	7264	inactive
58	MATN1 (GeneID 4146)	SID255350883	-0.29	migration z between -2 and 2; enough cells	0.82	5799	inactive
59	DET1 (GeneID 55070)	SID255358387	0.84	migration z between -2 and 2; enough cells	1.1	6052	inactive
60	ZNF600 (GeneID 162966)	SID255363761	1.25	migration z between -2 and 2; enough cells	1.21	6152	inactive
61	DAG1 (GeneID 1605)	SID255349231	-0.96	migration z between -2 and 2; enough cells	0.62	5768	inactive
62	FICD (GeneID 11153)	SID255355635	-0.7	migration z between -2 and 2; enough cells	0.7	5168	inactive
63	PLXNB1 (GeneID 5364)	SID255351647	0.83	migration z between -2 and 2; enough cells	0.97	5241	inactive
64	ABCF3 (GeneID 55324)	SID255358599	-0.47	migration z between -2 and 2; enough cells	0.72	4682	inactive
65	ZC3HC1 (GeneID 51530)	SID255357768	0.66	migration z between -2 and 2; enough cells	1.06	6462	inactive
66	ALKBH2 (GeneID 121642)	SID255362534	0.54	migration z between -2 and 2; enough cells	0.91	6440	inactive
67	PSMD1 (GeneID 5707)	SID255351900	-0.22	migration z between -2 and 2; enough cells	0.82	6020	inactive
68	RGS10 (GeneID 6001)	SID255352114	-1.02	migration z between -2 and 2; enough cells	0.62	4136	inactive
69	ARL16 (GeneID 339231)	SID255365025	-1.17	migration z between -2 and 2; enough cells	0.58	6140	inactive
70	SNAP23 (GeneID 8773)	SID255353800	-0.56	migration z between -2 and 2; enough cells	0.74	5054	inactive
71	DHX58 (GeneID 79132)	SID255360223	-1.66	migration z between -2 and 2; enough cells	0.48	5976	inactive
72	FAM13C (GeneID 220965)	SID255364257	0.58	migration z between -2 and 2; enough cells	1.04	5800	inactive
73	NAT14 (GeneID 57106)	SID255359268	0.34	migration z between -2 and 2; enough cells	0.98	6583	inactive
